## Cleaved PARP in drug-treated melanoma cells

Data from the primary screen of doi:10.1371/journal.pone.0140310, rounded.

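Human melanoma cells were exposed to two drugs together for 72 h in 1,536-well plates and read by automated microscopy after fixing and staining. Each value is the cleaved-PARP-positive fraction of nuclei relative to DMSO-treated wells, in %, so that 100 equals the control and higher values mean more apoptosis. Every drug was used at one fixed concentration, the higher of two screened. These are primary screening values without error estimates. The marker varies much from line to line, for technical or biological reasons.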
Only some of the drugs and lines screened are listed, without regard to their results.

All values are for the listed drug together with veliparib (7 µM): C[C@]1(c2nc3c(C(N)=O)cccc3[nH]2)CCCN1

For C=CCn1c(=O)c2cnc(Nc3ccc(N4CCN(C)CC4)cc3)nc2n1-c1cccc(C(C)(C)O)n1 at 0.1 µM the values were WM115: 200; UACC-62: 133; WM3526: 160; IPC-298: 261; SK-MEL-5: 401; C32: 84.0; WM1745: 205; MEL-HO: 75.3. Results for CS(=O)(=O)CCNCc1ccc(-c2ccc3ncnc(Nc4ccc(OCc5cccc(F)c5)c(Cl)c4)c3c2)o1 at 4 µM are WM115: 282; UACC-62: 504; WM3526: 133; IPC-298: 89.0; SK-MEL-5: 64.5; C32: 184; WM1745: 145; MEL-HO: 218. With C[C@@H]1CCN(C(=O)CC#N)C[C@@H]1N(C)c1ncnc2[nH]ccc12 at 5 µM the screen read WM115: 58.0; UACC-62: 122; WM3526: 75.1; IPC-298: 63.3; SK-MEL-5: 121; C32: 135; WM1745: 201; MEL-HO: 75.9.

For C/C(O)=C(\C#N)C(=O)Nc1cc(Br)ccc1Br at 10 µM the values were WM115: 123; UACC-62: 70.8; WM3526: 35.3; IPC-298: 94.5; SK-MEL-5: 183; C32: 86.3; WM1745: 71.7; MEL-HO: 54.6. Results for O=C1NC(=O)/C(=C/c2ccc(-c3ccc(F)cc3O)o2)S1 at 5 µM are WM115: 126; UACC-62: 400; WM3526: 113; IPC-298: 32.9; SK-MEL-5: 263; C32: 195; WM1745: 479; MEL-HO: 270. Results for NC1(c2ccc(-c3nc4ccn5c(=O)[nH]nc5c4cc3-c3ccccc3)cc2)CCC1 at 2 µM are WM115: 187; UACC-62: 188; WM3526: 147; IPC-298: 99.8; SK-MEL-5: 562; C32: 131; WM1745: 216; MEL-HO: 99.0.

With O=C(Nc1ccccc1)c1cc([N+](=O)[O-])ccc1Cl at 10 µM the screen read WM115: 384; UACC-62: 580; WM3526: 50.4; IPC-298: 53.5; SK-MEL-5: 198; C32: 89.0; WM1745: 134; MEL-HO: 44.8. With Cc1nc(Nc2ncc(C(=O)Nc3c(C)cccc3Cl)s2)cc(N2CCN(CCO)CC2)n1 at 0.02 µM the screen read WM115: 734; UACC-62: 180; WM3526: 72.2; IPC-298: 132; SK-MEL-5: 96.4; C32: 475; WM1745: 180; MEL-HO: 135. With COc1ccc(-c2ccc3c(N4CCOCC4)nc(N4C[C@@H](C)O[C@@H](C)C4)nc3n2)cc1CO at 0.1 µM the screen read WM115: 87.3; UACC-62: 202; WM3526: 106; IPC-298: 120; SK-MEL-5: 306; C32: 219; WM1745: 280; MEL-HO: 27.1.

Nc1ncn([C@H]2C[C@H](O)[C@@H](CO)O2)c(=O)n1 at 0.5 µM gave WM115: 275; UACC-62: 222; WM3526: 164; IPC-298: 184; SK-MEL-5: 449; C32: 83.8; WM1745: 74.4; MEL-HO: 93.3. CC(C)CCN1c2nc(Nc3cc(F)c(O)c(F)c3)ncc2N(C)C(=O)C1C (stereo not drawn) at 1 µM gave WM115: 346; UACC-62: 162; WM3526: 127; IPC-298: 25.1; SK-MEL-5: 37.1; C32: 95.5; WM1745: 126; MEL-HO: 175. With CN(c1ncccc1CNc1nc(Nc2ccc3c(c2)CC(=O)N3)ncc1C(F)(F)F)S(C)(=O)=O at 0.4 µM the screen read WM115: 181; UACC-62: 239; WM3526: 186; IPC-298: 140; SK-MEL-5: 327; C32: 296; WM1745: 143; MEL-HO: 179.

Results for C=C(c1ccc(C(=O)O)cc1)c1cc2c(cc1C)C(C)(C)CCC2(C)C at 10 µM are WM115: 102; UACC-62: 257; WM3526: 194; IPC-298: 154; SK-MEL-5: 56.6; C32: 375; WM1745: 106; MEL-HO: 91.3. With c1cc(-c2cnn3cc(-c4ccc(OCCN5CCCCC5)cc4)cnc23)ccn1 at 2 µM the screen read WM115: 160; UACC-62: 353; WM3526: 109; IPC-298: 67.6; SK-MEL-5: 146; C32: 169; WM1745: 225; MEL-HO: 52.0. For COc1cc(Nc2ncc(F)c(Nc3ccc4c(n3)NC(=O)C(C)(C)O4)n2)cc(OC)c1OC at 2 µM the values were WM115: 171; UACC-62: 199; WM3526: 104; IPC-298: 84.1; SK-MEL-5: 110; C32: 64.2; WM1745: 188; MEL-HO: 208.

With CS(=O)(=O)c1ccc(C(=O)Nc2ccc(Cl)c(-c3ccccn3)c2)c(Cl)c1 at 5 µM the screen read WM115: 440; UACC-62: 98.7; WM3526: 88.6; IPC-298: 62.6; SK-MEL-5: 143; C32: 148; WM1745: 112; MEL-HO: 67.4. For Cc1cc(Nc2cc(N3CCN(C)CC3)nc(/C=C/c3ccccc3)n2)n[nH]1 at 0.2 µM the values were WM115: 149; UACC-62: 135; WM3526: 83.4; IPC-298: 146; SK-MEL-5: 596; C32: 293; WM1745: 126; MEL-HO: 36.0. Results for O=C(Nc1cccc(Cl)c1)Nc1ncc(CCNc2ncnc3ccsc23)s1 at 0.004 µM are WM115: 198; UACC-62: 142; WM3526: 145; IPC-298: 41.6; SK-MEL-5: 199; C32: 105; WM1745: 134; MEL-HO: 268.

Nc1cccc2c1CN(C1CCC(=O)NC1=O)C2=O (stereo not drawn) at 5 µM gave WM115: 97.0; UACC-62: 271; WM3526: 29.1; IPC-298: 114; SK-MEL-5: 107; C32: 89.6; WM1745: 96.9; MEL-HO: 40.6. For Cn1cc(/C=C2\C(=O)Nc3cccnc32)c2ccccc21 at 2 µM the values were WM115: 110; UACC-62: 171; WM3526: 75.5; IPC-298: 47.9; SK-MEL-5: 72.1; C32: 113; WM1745: 144; MEL-HO: 96.8. With O=C(Nc1cc(C(F)(F)F)cc(C(F)(F)F)c1)c1cc(Cl)ccc1O at 0.08 µM the screen read WM115: 50.5; UACC-62: 168; WM3526: 135; IPC-298: 77.4; SK-MEL-5: 191; C32: 250; WM1745: 105; MEL-HO: 178.

Cn1cnc2c(F)c(Nc3ccc(Br)cc3Cl)c(C(=O)NOCCO)cc21 at 0.075 µM gave WM115: 321; UACC-62: 155; WM3526: 226; IPC-298: 114; SK-MEL-5: 285; C32: 27.0; WM1745: 129; MEL-HO: 86.6. Results for COc1cc2c(Oc3ccc4[nH]c(C)cc4c3F)ncnc2cc1OCCCN1CCCC1 at 2 µM are WM115: 131; UACC-62: 123; WM3526: 72.0; IPC-298: 76.9; SK-MEL-5: 76.3; C32: 125; WM1745: 107; MEL-HO: 172. With O=C(O)c1ccc2c(c1)nc(Nc1cccc(Cl)c1)c1ccncc12 at 2 µM the screen read WM115: 119; UACC-62: 266; WM3526: 321; IPC-298: 62.6; SK-MEL-5: 94.4; C32: 131; WM1745: 144; MEL-HO: 190.

Oc1cc(-c2nc(-c3ccccc3)[nH]c2-c2ccncc2)ccc1Cl at 1 µM gave WM115: 187; UACC-62: 283; WM3526: 144; IPC-298: 41.7; SK-MEL-5: 156; C32: 191; WM1745: 118; MEL-HO: 73.7. For NC(=O)Nc1cc(-c2cccc(F)c2)sc1C(=O)N[C@H]1CCCNC1 at 0.1 µM the values were WM115: 154; UACC-62: 164; WM3526: 904; IPC-298: 39.2; SK-MEL-5: 152; C32: 150; WM1745: 145; MEL-HO: 152. Results for Clc1ccc(Nc2nnc(Cc3ccncc3)c3ccccc23)cc1 at 10 µM are WM115: 102; UACC-62: 176; WM3526: 300; IPC-298: 130; SK-MEL-5: 223; C32: 159; WM1745: 422; MEL-HO: 55.6.

Results for Cn1c(Nc2ccc(C(F)(F)F)cc2)nc2cc(Oc3ccnc(-c4ncc(C(F)(F)F)[nH]4)c3)ccc21 at 0.4 µM are WM115: 988; UACC-62: 552; WM3526: 519; IPC-298: 225; SK-MEL-5: 2230; C32: 224; WM1745: 225; MEL-HO: 73.9. With C[C@]1(O)C[C@@H](c2nc(-c3ccc4ccc(-c5ccccc5)nc4c3)c3c(N)nccn32)C1 at 2 µM the screen read WM115: 84.0; UACC-62: 215; WM3526: 110; IPC-298: 124; SK-MEL-5: 94.3; C32: 134; WM1745: 128; MEL-HO: 89.3. Results for O=C(O)c1ccc(-c2c[nH]c3ncc(-c4ccccc4)cc23)cc1C1CCCC1 at 0.8 µM are WM115: 286; UACC-62: 108; WM3526: 153; IPC-298: 73.4; SK-MEL-5: 65.7; C32: 114; WM1745: 106; MEL-HO: 88.7.

COc1ccc2c(c1)CCC1C2CCC2(C)C(NCCCCCCN3C(=O)C=CC3=O)CCC12 (stereo not drawn) at 2 µM gave WM115: 131; UACC-62: 544; WM3526: 54.0; IPC-298: 65.5; SK-MEL-5: 132; C32: 155; WM1745: 159; MEL-HO: 49.8. For Cc1cc(Nc2cc(N3CCN(C)CC3)nc(Sc3ccc(NC(=O)C4CC4)cc3)n2)n[nH]1 at 0.03 µM the values were WM115: 254; UACC-62: 180; WM3526: 125; IPC-298: 101; SK-MEL-5: 133; C32: 374; WM1745: 171; MEL-HO: 50.5. Results for CCCCCCCCCCCC1=C(O)C(=O)C=C(O)C1=O at 6 µM are WM115: 121; UACC-62: 56.3; WM3526: 98.2; IPC-298: 58.2; SK-MEL-5: 139; C32: 106; WM1745: 145; MEL-HO: 55.2.

With CC(C)(C)c1cnc(CSc2cnc(NC(=O)C3CCNCC3)s2)o1 at 0.05 µM the screen read WM115: 139; UACC-62: 207; WM3526: 187; IPC-298: 43.8; SK-MEL-5: 43.5; C32: 57.3; WM1745: 162; MEL-HO: 162. With O=C(CCCCCCC(=O)Nc1ccccc1)NO at 0.4 µM the screen read WM115: 736; UACC-62: 179; WM3526: 117; IPC-298: 109; SK-MEL-5: 101; C32: 191; WM1745: 239; MEL-HO: 79.3. Cc1cn(-c2cc(NC(=O)c3ccc(C)c(Nc4nccc(-c5cccnc5)n4)c3)cc(C(F)(F)F)c2)cn1 at 1 µM gave WM115: 180; UACC-62: 190; WM3526: 272; IPC-298: 170; SK-MEL-5: 375; C32: 31.0; WM1745: 92.0; MEL-HO: 38.9.

CCCCCCCCCCCCCCCCCCOP(=O)([O-])OC1CC[N+](C)(C)CC1 at 2 µM gave WM115: 112; UACC-62: 226; WM3526: 73.2; IPC-298: 101; SK-MEL-5: 75.9; C32: 195; WM1745: 104; MEL-HO: 84.4.

The last 4 entries again:

{"second drug": "CC(C)(C)c1cnc(CSc2cnc(NC(=O)C3CCNCC3)s2)o1 at 0.05 µM", "WM115": 139, "UACC-62": 207, "WM3526": 187, "IPC-298": 43.8, "SK-MEL-5": 43.5, "C32": 57.3, "WM1745": 162, "MEL-HO": 162}
{"second drug": "O=C(CCCCCCC(=O)Nc1ccccc1)NO at 0.4 µM", "WM115": 736, "UACC-62": 179, "WM3526": 117, "IPC-298": 109, "SK-MEL-5": 101, "C32": 191, "WM1745": 239, "MEL-HO": 79.3}
{"second drug": "Cc1cn(-c2cc(NC(=O)c3ccc(C)c(Nc4nccc(-c5cccnc5)n4)c3)cc(C(F)(F)F)c2)cn1 at 1 µM", "WM115": 180, "UACC-62": 190, "WM3526": 272, "IPC-298": 170, "SK-MEL-5": 375, "C32": 31.0, "WM1745": 92.0, "MEL-HO": 38.9}
{"second drug": "CCCCCCCCCCCCCCCCCCOP(=O)([O-])OC1CC[N+](C)(C)CC1 at 2 µM", "WM115": 112, "UACC-62": 226, "WM3526": 73.2, "IPC-298": 101, "SK-MEL-5": 75.9, "C32": 195, "WM1745": 104, "MEL-HO": 84.4}